PubChem BioAssay AID652272, Drosophila RNAi Screening Center, 2013
The screen tested about 21,000 reagents; shown is a random part of those with a known target gene and a result. Over the whole deposit, 503 (2.4%) are marked active. 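Raw plate light values, not normalised; calls rest on replicate z-scores that were not deposited; hits include reporter decreases as well as increases.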 A plus sign joins genes that one reagent is predicted to hit. Not stated in the record: the amount of reagent, the time to read-out.

Aim: 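Genome-wide knock-down search for components of Hedgehog signalling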 (primary screen)
System: Drosophila clone 8 (Cl8) cells
Reagents: long dsRNA against Drosophila genes
Measurement: 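Plate reader light from a firefly reporter under a ptc promoter fragment that responds to Hedgehog, with Renilla light as transfection reference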
Direction: firefly Hh reporter signal: higher = more ptc reporter light; Renilla reference signal: higher = more Renilla control light
Call rule: 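Called a hit if the two-replicate mean z-score lies below -2 or above +3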
Calls: active = hit: reporter lowered or raised; inactive = not a hit

| predicted target | DRSC id | firefly Hh reporter signal, replicate 1 | firefly Hh reporter signal, replicate 2 | Renilla reference signal, replicate 1 | Renilla reference signal, replicate 2 | activity call |
| --- | --- | --- | --- | --- | --- | --- |
| Syt7 (Synaptotagmin 7) | DRSC17130 | 1.55e5 | 3.56e5 | 6082 | 12365 | inactive |
| Syt7 (Synaptotagmin 7) | DRSC17159 | 1.37e5 | 2.93e5 | 5174 | 10966 | inactive |
| CG15745 (retired record) | DRSC19711 | 89010 | 2.97e5 | 1972 | 9560 | inactive |
| Tbh (Tyramine beta hydroxylase) | DRSC18723 | 86877 | 1.51e5 | 3175 | 5865 | inactive |
| mEFG1 (mitochondrial translation elongation factor G 1) | DRSC02758 | 84805 | 44353 | 2589 | 5344 | inactive |
| dve (defective proventriculus) | DRSC04680 | 1.33e5 | 59104 | 3367 | 4896 | inactive |
| sw + Sdic4 + Sdic3 + 2 more | DRSC20696 | 1.02e5 | 3.42e5 | 3395 | 12491 | inactive |
| CG9517 (retired record) | DRSC20192 | 1.02e5 | 2.29e5 | 3067 | 10348 | inactive |
| CG9517 (retired record) | DRSC20193 | 70706 | 1.43e5 | 1968 | 6193 | inactive |
| CG31974 | DRSC00522 | 1.17e5 | 96598 | 2548 | 2375 | inactive |
| Arts + Apl | DRSC10349 | 1.68e5 | – | 6429 | 4601 | inactive |
| CG3698 | DRSC11749 | 1.20e5 | 87776 | 4988 | 3178 | inactive |
| CYLD (Cylindromatosis) | DRSC02870 | 1.10e5 | 34795 | 2698 | 3965 | inactive |
| CG14760 | DRSC06495 | 1.01e5 | 40648 | 2586 | 3648 | inactive |
| Abd-B (Abdominal B) | DRSC14098 | 92157 | 1.05e5 | 2628 | 2598 | inactive |
| Abd-B (Abdominal B) | DRSC14337 | 68032 | 52626 | 1968 | 1488 | inactive |
| asRNA:CR43468 + Lfg | DRSC06853 | 75334 | 42464 | 1450 | 3155 | inactive |
| CG43336 | DRSC15765 | 1.44e5 | 1.18e5 | 4738 | 3117 | inactive |
| HmgZ (HMG protein Z) | DRSC03888 | 1.34e5 | 2.71e5 | 1209 | 14896 | inactive |
| HmgZ (HMG protein Z) | DRSC04620 | 98633 | 50448 | 2968 | 6227 | inactive |
| tun (tungus) | DRSC05592 | 1.32e5 | 3.19e5 | 3320 | 14211 | inactive |
| tun (tungus) | DRSC07127 | 1.20e5 | 1.04e5 | 5475 | 4917 | inactive |
| CG10068 | DRSC12508 | 95009 | 83809 | 3668 | 2962 | inactive |
| lola (longitudinals lacking) | DRSC05220 | 1.13e5 | 2.10e5 | 3010 | 8560 | inactive |
| lola (longitudinals lacking) | DRSC05221 | 1.55e5 | 3.16e5 | 4148 | 12425 | inactive |
| lola (longitudinals lacking) | DRSC05222 | 1.27e5 | 2.90e5 | 3552 | 10582 | inactive |
| lola (longitudinals lacking) | DRSC05223 | 1.26e5 | 1.24e5 | 2869 | 5004 | inactive |
| lola (longitudinals lacking) | DRSC05224 | 1.93e5 | 2.25e5 | 4581 | 8736 | inactive |
| lola (longitudinals lacking) | DRSC06738 | 34816 | 16982 | 1808 | 898 | inactive |
| lola (longitudinals lacking) | DRSC06739 | 75447 | 39235 | 2161 | 3497 | inactive |
| lola (longitudinals lacking) | DRSC06740 | 64849 | 34676 | 2378 | 1245 | inactive |
| lola (longitudinals lacking) | DRSC06741 | 1.11e5 | 47795 | 2952 | 4961 | inactive |
| lola (longitudinals lacking) | DRSC06742 | 73020 | 28506 | 1844 | 1739 | inactive |
| lola (longitudinals lacking) | DRSC07646 | 1.18e5 | 81817 | 4631 | 3293 | inactive |
| lola (longitudinals lacking) | DRSC07647 | 1.22e5 | 81148 | 3056 | 5819 | inactive |
| Hydr1 (alpha/beta hydrolase 1) | DRSC07063 | 4.49e5 | 87538 | 4460 | 4460 | inactive |
| CG4116 | DRSC18348 | 1.00e5 | 2.11e5 | 4117 | 8280 | inactive |
| lsn (larsen) | DRSC16081 | 7.73e5 | 1.66e5 | 45725 | 2400 | inactive |
| TotC (Turandot C) | DRSC13449 | 62219 | 2.18e5 | 12277 | 5849 | inactive |
| RpS2 (Ribosomal protein S2) | DRSC03614 | 31197 | 18576 | 2121 | 1813 | active |
| sbr (small bristles) | DRSC19770 | 53257 | 1.51e5 | 1922 | 6232 | inactive |
| sbr (small bristles) | DRSC20368 | 36390 | 82618 | 1211 | 4241 | inactive |
| CG3397 | DRSC15487 | 1.26e5 | 1.13e5 | 4880 | 3974 | inactive |
| CG6357 | DRSC06979 | 1.06e5 | 77708 | 4545 | 3031 | inactive |
| CG15578 | DRSC18066 | 82210 | 1.91e5 | 2796 | 7193 | inactive |
| CAH13 (Carbonic anhydrase 13) | DRSC06128 | 87401 | 61320 | 2294 | 5221 | inactive |
| AdamTS-A (ADAM metallopeptidase with thrombospondin type 1 motif A) | DRSC14992 | 1.21e5 | 58189 | 5252 | 1863 | inactive |
| AdamTS-A (ADAM metallopeptidase with thrombospondin type 1 motif A) | DRSC15966 | 1.31e5 | 1.97e5 | 4120 | 5683 | inactive |
| CG13654 | DRSC14654 | 4.96e5 | 79127 | 26756 | 6160 | inactive |
| CG12702 | DRSC19487 | 58020 | 1.21e5 | 1277 | 5770 | inactive |
| Atxn7 (Ataxin 7) | DRSC00726 | 1.28e5 | 97032 | 5589 | 4506 | inactive |
| CG4896 | DRSC00671 | 68144 | 37193 | 2713 | 1616 | inactive |
| Ddx1 (Dead-box-1) | DRSC11862 | 1.13e5 | 73025 | 4128 | 2940 | inactive |
| Tango4 (Transport and Golgi organization 4) | DRSC19786 | 61789 | 44903 | 2054 | 1557 | inactive |
| Rpp30 (RNaseP protein p30) | DRSC00320 | 1.64e5 | 98391 | 6105 | 3945 | inactive |
| PAPLA1 (Phosphatidic Acid Phospholipase A1) | DRSC03095 | 1.01e5 | 69604 | 5256 | 3072 | inactive |
| PAPLA1 (Phosphatidic Acid Phospholipase A1) | DRSC03096 | 63217 | 46662 | 2247 | 4360 | inactive |
